Measured values reported in patent US20100298371A1, “PROCESS FOR PREPARING CHEMICALLY AND CHIRALLY PURE SOLIFENACIN BASE AND ITS SALTS” (priority 2007, published 2010).
Some of these results come from one statement about several compounds together. Some ranges recur; such a range may be that of the whole group of compounds.

Assay: Pharmacokinetic profile of Solifenacin salts in fasted male Wistar rats
Assay type: in vivo
Conditions: text summary of Table 3b

With Solifenacin phosphate the “Tmax (absorption, as stated in text)” value was 1.0 to 1.3 h.
